Source: publication PMC9703632, “The noncatalytic regions of the tyrosine kinase Tnk1 are important for activity and substrate specificity” (The Journal of Biological Chemistry, 2022)
No constants are given. Whether binding was seen depends on the method and setting. In cells and extracts the contact can be indirect. Some entries that bind do so weakly or less than the wild type.

Target: Human Tnk1 (thirty-eight negative kinase 1), wild type (human) (UniProt Q13470)
Assay: co-IP; FLAG-tagged and SBP-tagged copies coexpressed in HEK293T; lysate (25 mM Tris pH 7.5, 1 mM EDTA, 100 mM NaCl, 1% Triton X-100) incubated with anti-FLAG resin 2 h at 4 °C, five washes; Western blot with FLAG and SBP antibodies

B1: Human Tnk1 (thirty-eight negative kinase 1), wild type (enzyme, UniProt Q13470-2 1-661)
chain: MLPEAGSLWLLKLLRDIQLAQFYWPILEELNVTRPEHFDFVKPEDLDGIGMGRPAQRRLSEALKRLRSGPKSKNWVYKILGGFAPEHKEPTLPSDSPRHLPEPEGGLKCLIPEGAVCRGELLGSGCFGVVHRGLWTLPSGKSVPVAVKSLRVGPEGPMGTELGDFLREVSVMMNLEHPHVLRLHGLVLGQPLQMVMELAPLGSLHARLTAPAPTPPLLVALLCLFLRQLAGAMAYLGARGLVHRDLATRNLLLASPRTIKVADFGLVRPLGGARGRYVMGGPRPIPYAWCAPESLRHGAFSSASDVWMFGVTLWEMFSGGEEPWAGVPPYLILQRLEDRARLPRPPLCSRALYSLALRCWAPHPADRPSFSHLEGLLQEAGPSEACCVRDVTEPGALRMETGDPITVIEGSPDSTIWKGQNGRTFKVGSFPASAVTLADAGGLPATRPVHRGTPARGDQHPGSIDGDRKKANLWDAPPARGQRRNMPLERMKGISRSLESVLSLGPRPTGGGSSPPEIRQARAVPQGPPGLPPRPPLSSSSPQPSQPSRERLPWPKRKPPHNHPMGMPGARKAAALSGGLLSDPELQRKIMEVELSVHGVTHQECQTALGATGGDVVSAIRNLKVDQLFHLSSRSRADCWRILEHYQWDLSAASRYVLARP
With B1 the binding was “binds”.
